Reference: publication PMC5438246
Results are given in words; binding and its absence hold for the method and conditions named. In cells and extracts the contact can be indirect. Binding can be weak; no strength is given. Where a sequence is shown, tags or fusion partners need not be part of it.

Legend:
[1] = molecular target: T1, YFP:NPSN11 (Qb-SNARE NPSN11 fused to YFP, estradiol-inducible) (Arabidopsis thaliana) (UniProt Q944A9); assay: co-IP; protein extracts of Arabidopsis seedlings (wild type, big3, or gnl1 GNL1^BFA-sens.) with estradiol-induced YFP:NPSN11 or GFP:SNAP33, with or without 50 µM BFA (30 min, then BFA + 20 µM estradiol 210 min; traffic blocked at the TGN or at the ER); anti-GFP beads (GFP-trap) 2 hr in the cold; 50 mM Tris pH 7.5, 150 mM NaCl, 1 mM EDTA, 0.5% Triton X-100 (washes 0.2%); immunoblot
T1 sequence: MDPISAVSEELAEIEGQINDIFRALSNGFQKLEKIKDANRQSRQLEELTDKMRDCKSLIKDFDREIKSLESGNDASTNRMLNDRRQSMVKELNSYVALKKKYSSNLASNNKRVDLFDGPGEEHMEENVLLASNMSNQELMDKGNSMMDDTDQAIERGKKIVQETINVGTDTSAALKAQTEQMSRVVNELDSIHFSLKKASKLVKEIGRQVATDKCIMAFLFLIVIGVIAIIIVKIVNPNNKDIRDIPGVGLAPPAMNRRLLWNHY

[2] = molecular target: T2, GFP:SNAP33 (Qbc-SNARE SNAP33 fused to GFP, estradiol-inducible) (Arabidopsis thaliana) (UniProt Q9S7P9); assay: as above
T2 sequence: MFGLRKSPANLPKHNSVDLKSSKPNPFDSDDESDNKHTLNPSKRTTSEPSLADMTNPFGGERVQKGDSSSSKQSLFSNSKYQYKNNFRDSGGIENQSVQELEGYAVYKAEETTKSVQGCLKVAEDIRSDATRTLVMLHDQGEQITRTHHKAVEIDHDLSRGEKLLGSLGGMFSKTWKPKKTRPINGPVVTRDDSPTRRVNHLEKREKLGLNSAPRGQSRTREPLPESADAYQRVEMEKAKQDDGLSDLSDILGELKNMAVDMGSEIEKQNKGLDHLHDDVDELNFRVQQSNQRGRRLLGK

binding [1]: binds
binding [2]: binds
Substance: Qa-SNARE KNOLLE
